Measurements published in patent US20100130432A1, “Non-Natural Amino Acids and Neurotensin Analogues Thereof” (priority 2005, published 2010).

Tested on: rats
Test: Induced hypothermia (rectal temperature) after IP or oral administration
Settings: Table 9

## CC(C)C[C@H](NC(=O)[C@@H](NC(=O)[C@H](Cc1ccc(O)cc1)NC(=O)[C@@H]1CCCN1C(=O)[C@H](CCCNC(=N)N)NC(=O)[C@H](CCCCCN)N=[N+]=[N-])C(C)(C)C)C(=O)O [ABS13, N3-L-homolysine-Arg-Pro-Tyr-tertLeu-Leu-COOH]
IP 5 mg/kg
  IP Dose tmax: 2.5 h
  IP Dose Δ in BT (° C.): −4.26 °C
Oral 20 mg/kg
  Oral Dose tmax: 1.5 h
  Oral Dose Δ in BT (° C.): −1.66 °C
